PubChem BioAssay AID1671195, Yale University, 2021
The deposit covers about 22,000 reagents; below is a part drawn at random. About 1,510 of them (6.9%) count as active. 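Active includes knockdowns raising or lowering LDL uptake; positive z-scores mean more uptake, negative mean less.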

Screen: 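Regulators of LDL receptor activity judged by labelled LDL uptake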 (primary screen)
System: human Huh7 hepatoma cells
Knock-down reagent: siRNA pool against human genes, 18 nM
Timing: about 2 to 2.5 days of knockdown, then 8 h LDL uptake
Challenge: DiI-labelled LDL at 30 µg/ml for 8 h, in lipoprotein-deficient serum medium
Measured: 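Fluorescent LDL signal imaged in cells, scaled to the plate median, robust z-score for each replicate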
Reading the numbers: robust z-score: higher = more LDL uptake after knockdown
Call rule: 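Active when two or more replicates show a robust z-score above 2 or below -2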

gene,"robust z-score, replicate 1","robust z-score, replicate 2","robust z-score, replicate 3",outcome
PHLDB2 (pleckstrin homology like domain family B member 2),5.19,3.94,4.23,active
CACFD1 (calcium channel flower domain containing 1),1.11,1.07,1.43,inactive
CSN1S1 (casein alpha s1),0.343,1.67,0.455,inactive
ITGB1BP2 (integrin subunit beta 1 binding protein 2),1.69,2.3,1.01,inactive
SLC22A7,-1.02,-1.09,-0.784,inactive
UQCRH (ubiquinol-cytochrome c reductase hinge protein),0.371,0.503,1.22,inactive
ELF1 (E74 like ETS transcription factor 1),2.15,1.87,2.03,active
CCDC186 (coiled-coil domain containing 186),0.479,-0.877,-0.446,inactive
HNMT (histamine N-methyltransferase),-0.0469,0.0981,0.345,inactive
CFDP1 (chromatin remodeling protein CFDP1),-2.62,-0.348,-1.23,inactive
TFAP2C (transcription factor AP-2 gamma),-0.731,-1.01,-0.692,inactive
PRSS51 (serine protease 51),1.82,1.05,1.33,inactive
CUL4A (cullin 4A),1.68,2.6,1.44,inactive
LOC442145 (retired record),0.0225,-0.192,0.0768,inactive
FAM86B1,-0.153,-0.858,0.136,inactive
POU5F1 (POU class 5 homeobox 1),4.85,4.21,4.06,active
LSAMP (limbic system associated membrane protein),-0.767,-1.35,-0.837,inactive
TBC1D8B (TBC1 domain family member 8B),0.548,0.314,0.676,inactive
SREK1 (splicing regulatory glutamic acid and lysine rich protein 1),0.399,-0.135,0.636,inactive
HABP4 (hyaluronan binding protein 4),0.581,1.42,1.04,inactive
LOC390244 (retired record),-1.22,-1.08,-0.719,inactive
ADGRE1 (adhesion G protein-coupled receptor E1),0.738,-0.322,0.16,inactive
HOXA3 (homeobox A3),-0.486,-0.981,-1.23,inactive
FH (fumarate hydratase),-1.42,-0.329,-1.35,inactive
KCNJ15 (potassium inwardly rectifying channel subfamily J member 15),1.09,0.322,0.936,inactive
CAV2 (caveolin 2),0.652,0.823,0.717,inactive
SCARA5 (scavenger receptor class A member 5),-1.06,-0.86,-1.58,inactive
KDR (kinase insert domain receptor),-1.37,-0.985,-1.24,inactive
TRAF3IP3 (TRAF3 interacting protein 3),0.0716,-0.00993,-0.229,inactive
RRP1B (ribosomal RNA processing 1B),-1.24,-1.71,-1.07,inactive
CNOT6L (CCR4-NOT transcription complex subunit 6 like),1.58,0.911,1.25,inactive
LOC440491 (retired record),0.515,-0.131,0.559,inactive
WDR91 (WD repeat domain 91),-0.653,-0.647,-0.35,inactive
CHSY3 (chondroitin sulfate synthase 3),-0.852,-1.09,-0.681,inactive
KLHL34 (kelch like family member 34),1.94,2.37,1.99,inactive
MLYCD (malonyl-CoA decarboxylase),-1.59,-1.7,-1.58,inactive
TRMU (tRNA mitochondrial 2-thiouridylase),-0.0353,-0.14,-0.473,inactive
VAC14 (VAC14 component of PIKFYVE complex),-0.533,-1.74,1.73,inactive
SMPD1 (sphingomyelin phosphodiesterase 1),0.828,0.298,0.00184,inactive
RPS3AP18 (RPS3A pseudogene 18),-1.04,-0.688,-1.02,inactive
FBXL6 (F-box and leucine rich repeat protein 6),0.367,-0.767,-0.493,inactive
"RAB6A (RAB6A, member RAS oncogene family)",1.24,2.75,1.42,inactive
FAM99A (family with sequence similarity 99 member A),-0.368,-0.422,-0.49,inactive
PPFIA1 (PPFI scaffold protein A1),-0.546,-1.02,-0.512,inactive
OSTN (osteocrin),-0.0435,-0.646,-0.098,inactive
AFG3L2 (AFG3 like matrix AAA peptidase subunit 2),-1.36,-0.648,-0.902,inactive
